Test results as given in US20220289854A1.
Results are given in words; binding and its absence hold for the method and conditions named. Binding calls can cover weak binding; strength is not graded here.

Key:
mouse CX3CR1 (mouse) [1] = assay: flow cytometry titration on Jurkat cells transfected with mCX3CR1
mouse CX3CR1 (mouse) [2] = assay: Western blot of CT26, 4T1, GL261, ID8 lysates (1 µg/ml) and flow cytometry on 4T1 and GL261 cells (10 µg/ml)
mouse CX3CR1 (mouse) [3] = assay: flow cytometry on CT26 cells, 10 µg/ml
mouse CX3CR1 (mouse) [4] = assay: flow cytometry on Jurkat cells transfected with mCX3CR1 (FIG. 1 legend)

Measured: binding

B1: 455.1C11 anti-mouse CX3CR1 monoclonal antibody (antibody, V domains shown)
VH: QVQLVETGGGLVRPGNSLKLSCVTSGFTFSNYRMHWLRQFPGKRLEWIAVIAFKSDKFGANYAESVKGRFAISRDDSKNSVYLEMSRLREEDTATYFCSRDGNGPFDYWGQGTTLTVSS
VL: DIVMSQSPSSLTVSVGEKVTMSCKSSQSLLYSGNQKSYLAWYQQKPGQSPRLLIYWASTRESGVPDRFTGSGSGTDFTLTISGVKAEDLAVYYCQRYYGYPRTFGGGTKLEIK
binds: mouse CX3CR1 (mouse) [1] | mouse CX3CR1 (mouse) [2] | mouse CX3CR1 (mouse) [3] | mouse CX3CR1 (mouse) [4]
